Assay results published in PMC10824736.
Results are given in words; binding and its absence hold for the method and conditions named. Binding seen in cells or lysates may run through a third protein. Some entries that bind do so weakly or less than the wild type. Tags and fused reporters may be left off the sequences shown.

Target: T1, C-terminally FLAG-tagged NIPSNAP3B (UniProt Q9BS92)
T1 sequence: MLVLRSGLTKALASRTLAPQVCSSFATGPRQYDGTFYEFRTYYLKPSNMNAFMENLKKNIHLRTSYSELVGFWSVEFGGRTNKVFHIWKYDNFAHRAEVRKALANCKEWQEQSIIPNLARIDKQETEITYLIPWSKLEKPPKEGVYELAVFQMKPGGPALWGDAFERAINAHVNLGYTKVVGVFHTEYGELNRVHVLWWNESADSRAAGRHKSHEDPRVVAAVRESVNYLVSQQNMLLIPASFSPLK
Experiment: co-IP; lysates of BEAS-2B cells transfected with FLAG-tagged NIPSNAPs (with 10 uM Q-VD-OPH); anti-FLAG antibody beads overnight at 4 °C; lysis and wash buffer 1% Triton-X 100, 0.5% sodium deoxycholate, 0.15 M NaCl, 2 mM EDTA, 50 mM HEPES-NaOH 7.4; four washes; p62 detected by WB

## p62 (from UniProt Q13501 1-440)
  binding: binds weakly
